These are yes or no findings as the source states them, for the method shown. Binding seen in cells or lysates may run through a third protein. Here binding means that the protein was enriched with, or labelled near, the bait; the list need not be complete.
Target: Flag-tagged BAG6 (in HEK-293T) (UniProt P46379)
Assay: affinity purification with mass spectrometry; immunoprecipitation of BAG6 from HEK-293T cells consistently overexpressing Flag-tagged BAG6, mass spectrometry

By UniProt entry, the sequences of proteins in these tests, tags left out.
UniProt P46379: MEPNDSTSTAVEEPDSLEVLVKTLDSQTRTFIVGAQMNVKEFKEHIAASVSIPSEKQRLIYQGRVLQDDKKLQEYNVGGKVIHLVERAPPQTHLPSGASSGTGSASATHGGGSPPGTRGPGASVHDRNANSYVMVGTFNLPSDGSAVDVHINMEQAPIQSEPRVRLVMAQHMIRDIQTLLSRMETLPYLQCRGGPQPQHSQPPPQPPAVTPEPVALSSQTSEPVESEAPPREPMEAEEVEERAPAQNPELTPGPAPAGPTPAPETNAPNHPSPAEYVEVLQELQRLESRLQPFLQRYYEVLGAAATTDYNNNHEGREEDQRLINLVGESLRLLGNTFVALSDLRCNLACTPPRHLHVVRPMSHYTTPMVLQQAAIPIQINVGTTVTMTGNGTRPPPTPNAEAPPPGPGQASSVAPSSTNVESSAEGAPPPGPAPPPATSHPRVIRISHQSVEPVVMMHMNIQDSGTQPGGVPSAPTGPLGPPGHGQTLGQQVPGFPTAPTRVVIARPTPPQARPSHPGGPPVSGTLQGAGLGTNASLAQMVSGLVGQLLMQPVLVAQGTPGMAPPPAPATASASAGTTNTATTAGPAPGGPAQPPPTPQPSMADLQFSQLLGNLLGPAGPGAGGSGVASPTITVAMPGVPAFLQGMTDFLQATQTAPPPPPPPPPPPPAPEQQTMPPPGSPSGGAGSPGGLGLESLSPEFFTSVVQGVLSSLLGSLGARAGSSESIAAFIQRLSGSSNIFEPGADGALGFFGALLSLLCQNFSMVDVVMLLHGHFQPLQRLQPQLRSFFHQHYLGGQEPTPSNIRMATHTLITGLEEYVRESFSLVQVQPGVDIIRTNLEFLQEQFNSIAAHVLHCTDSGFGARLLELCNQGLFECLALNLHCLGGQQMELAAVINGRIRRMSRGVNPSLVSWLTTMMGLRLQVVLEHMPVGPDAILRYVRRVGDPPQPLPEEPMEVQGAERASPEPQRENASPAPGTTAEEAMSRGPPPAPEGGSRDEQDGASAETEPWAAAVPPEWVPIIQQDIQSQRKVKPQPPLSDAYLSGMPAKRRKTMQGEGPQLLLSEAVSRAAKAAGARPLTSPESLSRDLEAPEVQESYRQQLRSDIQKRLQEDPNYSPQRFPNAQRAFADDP
UniProt P10415: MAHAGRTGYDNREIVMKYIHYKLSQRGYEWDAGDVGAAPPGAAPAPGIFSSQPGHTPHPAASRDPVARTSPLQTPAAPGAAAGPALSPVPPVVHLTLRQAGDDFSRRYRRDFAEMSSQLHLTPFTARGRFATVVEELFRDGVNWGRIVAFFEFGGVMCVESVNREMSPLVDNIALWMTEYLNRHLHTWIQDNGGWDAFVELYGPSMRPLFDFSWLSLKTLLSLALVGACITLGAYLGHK

binding: binds
Substance: BCL2 (B-cell lymphoma 2), endogenous in HEK-293T (from UniProt P10415 1-239)

From article PMC10497826
